Experimental data: publication PMC11401227, “The structure of DNA methyltransferase DNMT3C reveals an activity-tuning mechanism for DNA methylation” (The Journal of Biological Chemistry, 2024)
Construct, isoform or probe ends are uncertain for at least one entry.

Tested on: DNMT3C MTase domain WT (EMSA complex) + mDNMT3L C-terminal domain
Assay: EMSA
Details: 1.0 uM DNA, 0-2 uM protein; EMSA: 50 mM Tris-HCl pH 8.5, 36% glycerol, 8% glucose, 2 mM DTT, 0.1 mg/ml BSA, 100 mM NaCl, 0.08% Tween 20, 30 min on ice; 8% PAGE, 0.5x TBE pH 8.3, 4 C; recombinant protein; protein details: His6-SUMO removed by ULP1

“GACGACGACGACGACGACGACGACGACGACGACGAC (double strand) [(GAC)12 DNA duplex]”: binds.
